# Source: PubChem BioAssay AID248 (DTP/NCI, 2004)
# The list shows only some results of the screen, not a fair sample: it is rich in T/C values a quarter to a half above the control, in often repeated tests (any T/C) and in doses without a T/C. Other doses and runs of a compound stand elsewhere. T/C gives the treated animals as a percentage of the vehicle group. Some entries give survivors of the animals treated and no T/C: the source holds a T/C of zero for them, seemingly a mark for toxic or unscored doses. Some doses without a T/C left all or most animals alive at the check, yet need not have been tolerated: survival well below the control is almost never listed, so the zero probably covers shortened survival too. Counts of survivors are from the toxicity check (mostly the fifth day) where no day follows; animals may have died later. Schedules are NCI's codes, read here as Q, the interval in days (D) or hours (H), X, the number of doses. Some doses were run more than once; the results are listed from low to high. Some schedule codes hold Z or #, which are not explained here. For survival time, this PubChem deposit counts one and a half times the control or more as active, and values a quarter to a half above the control carry no call in these data; other NCI protocols may use other cut-offs.
# Test system: L1210 leukemia ip in BDF1 mice, survival T/C
# Test: NCI In Vivo Anticancer Drug Screen. Data for tumor model L1210 Leukemia (intraperitoneal) in B6D2F1 (BDF1) mice
# Conditions: T/C endpoint: mean survival time, higher T/C = longer survival
# [1] = dose: 100.0 mg/kg/injection, schedule: Q04DX003 (ip), vehicle: saline
# [2] = dose: 200.0 mg/kg/injection, schedule: Q04DX003 (ip), vehicle: saline
# [3] = dose: 400.0 mg/kg/injection, schedule: Q04DX003 (ip), vehicle: saline
# [4] = dose: 400.0 mg/kg/injection, schedule: Q04DX003 (ip), vehicle: saline with Tween-80
# [5] = dose: 200.0 mg/kg/injection, schedule: Q01DX009 (ip), vehicle: Klucel (hydroxypropylcellulose) (HPC)
# [6] = dose: 200.0 mg/kg/injection, schedule: Q04DX003 (ip), vehicle: saline with Tween-80
# [7] = dose: 400.0 mg/kg/injection, schedule: Q01DX009 (ip), vehicle: Klucel (hydroxypropylcellulose) (HPC)
compound,measurement,setting,value
CN(N=O)C(=O)N(C)C(=O)N(C)N=O,survivor count,"dose: 75.0 mg/kg/injection, schedule: Q01DX Z (ip), vehicle: carboxymethylcellulose (CMC)",5 of 6
same,survivor count,"dose: 100.0 mg/kg/injection, schedule: Q01DX Z (ip), vehicle: carboxymethylcellulose (CMC)",5 of 6
same,survivor count,"dose: 200.0 mg/kg/injection, schedule: Q01DX Z (ip), vehicle: carboxymethylcellulose (CMC)",0 of 6
O=S(=O)(/C=C/c1ccccc1)Oc1ccc(-c2ccccc2)cc1,survivor count,"dose: 200.0 mg/kg/injection, schedule: Q01DX009 (ip), vehicle: acetone",6 of 6
CCCCCCCC(=O)N(CCCCC)CCCCC,survivor count,"dose: 400.0 mg/kg/injection, schedule: Q01DX009 (ip), vehicle: carboxymethylcellulose (CMC)",2 of 3 and 5 of 6
CCOC(=O)c1cc(C(=O)OCC)c[n+](CCCl)c1,survivor count,"dose: 128.0 mg/kg/injection, schedule: Q01DX Z (ip), vehicle: other",0 of 6
CC1CCC2(O)C3(C)CC(=O)OC2(C1O)C1(O)C(C)C(O)(C(C)C)C(O)C31O (centres undefined),survivor count,"dose: 10.0 mg/kg/injection, schedule: Q01DX001 (ip), vehicle: saline",3 of 6
same,survivor count,"dose: 20.0 mg/kg/injection, schedule: Q01DX001 (ip), vehicle: saline",0 of 6
same,survivor count,"dose: 40.0 mg/kg/injection, schedule: Q01DX001 (ip), vehicle: saline",0 of 6
same,survivor count,"dose: 80.0 mg/kg/injection, schedule: Q01DX001 (ip), vehicle: saline",0 of 6
same,survivor count,"dose: 100.0 mg/kg/injection, schedule: Q01DX001 (ip), vehicle: saline",0 of 6
same,survivor count,"dose: 200.0 mg/kg/injection, schedule: Q01DX001 (ip), vehicle: saline",0 of 6
same,survivor count,"dose: 400.0 mg/kg/injection, schedule: Q01DX001 (ip), vehicle: saline",0 of 6
O=C(Nc1ccc(C(=O)Nc2cc(S(=O)(=O)O)cc3cccc(S(=O)(=O)O)c23)cc1)Nc1ccc(C(=O)Nc2cc(S(=O)(=O)O)cc3cccc(S(=O)(=O)O)c23)cc1,survivor count,"dose: 300.0 mg/kg/injection, schedule: Q01DX001 (ip), vehicle: carboxymethylcellulose (CMC)",1 of 6
CN(C)c1ccc(NC(=S)Nc2ccc(N(C)C)cc2)cc1,survivor count,"dose: 100.0 mg/kg/injection, schedule: Q01DX001 (ip), vehicle: saline with Tween-80",3 of 3
same,survivor count,"dose: 200.0 mg/kg/injection, schedule: Q01DX001 (ip), vehicle: saline with Tween-80",3 of 3
NC(CSC1(c2ccc(Cl)cc2)c2ccccc2-c2ccccc21)C(=O)O (centres undefined),survivor count,"dose: 200.0 mg/kg/injection, schedule: Q01DX009 (ip), vehicle: other",1 of 6
Cc1cc(Cl)nc(Nc2nc3cc(Cl)c(Cl)cc3[nH]2)n1,survivor count,"dose: 25.0 mg/kg/injection, schedule: Q01DX009 (ip), vehicle: acetone",6 of 6
same,survivor count,"dose: 50.0 mg/kg/injection, schedule: Q01DX009 (ip), vehicle: acetone",6 of 6
same,survivor count,[1],6 of 6
same,survivor count,[2],6 of 6
same,survivor count,[3],6 of 6
NC(=O)C(=Cc1ccc([N+](=O)[O-])s1)C(N)=O,survivor count,"dose: 400.0 mg/kg/injection, schedule: Q04DX002 (ip), vehicle: Klucel (hydroxypropylcellulose) (HPC)",1 of 3
COc1ccc(/C=N/NC(=O)c2ccccc2OC)cc1,T/C,"dose: 200.0 mg/kg/injection, schedule: Q01DX009 (ip), vehicle: saline",125 % of control
CCC[CH2][Sn]([C]#[C][Sn]([CH2]CCC)([CH2]CCC)[CH2]CCC)([CH2]CCC)[CH2]CCC,survivor count,"dose: 3.12 mg/kg/injection, schedule: Q01DX009 (ip), vehicle: saline",6 of 6
same,survivor count,"dose: 6.25 mg/kg/injection, schedule: Q01DX009 (ip), vehicle: saline",3 of 6
same,survivor count,"dose: 12.5 mg/kg/injection, schedule: Q01DX009 (ip), vehicle: Klucel (hydroxypropylcellulose) (HPC)",2 of 6
same,survivor count,"dose: 25.0 mg/kg/injection, schedule: Q01DX009 (ip), vehicle: Klucel (hydroxypropylcellulose) (HPC)",4 of 6
same,survivor count,"dose: 50.0 mg/kg/injection, schedule: Q04DX002 (ip), vehicle: saline",1 of 3
same,survivor count,"dose: 100.0 mg/kg/injection, schedule: Q04DX002 (ip), vehicle: saline",1 of 3 and 3 of 3
same,survivor count,"dose: 200.0 mg/kg/injection, schedule: Q04DX002 (ip), vehicle: saline",1 of 3
same,survivor count,"dose: 400.0 mg/kg/injection, schedule: Q04DX002 (ip), vehicle: saline",1 of 3
O=P(O)(O)Cc1cccc2ccccc12,survivor count,"dose: 400.0 mg/kg/injection, schedule: Q04DX003 (ip), vehicle: Klucel (hydroxypropylcellulose) (HPC)",3 of 3
COc1ccccc1C(=O)C=C(C(F)(F)F)C(F)(F)F,survivor count,[4],3 of 6
NC(=Nc1ccccc1)SCc1ccc([N+](=O)[O-])cc1,survivor count,[5],0 of 3
same,survivor count,"dose: 400.0 mg/kg/injection, schedule: Q01DX005 (ip), vehicle: Klucel (hydroxypropylcellulose) (HPC)",0 of 3
CCOP(=S)(N1CC1(C)C)N1CC1(C)C (centres undefined),survivor count,"dose: 400.0 mg/kg/injection, schedule: Q01DX015 (ip), vehicle: carboxymethylcellulose (CMC)",0 of 6
O=C(COc1cccc(Cl)c1)Nc1cc[n+](Cc2ccc(S(=O)(=O)F)cc2)cc1,survivor count,[6],2 of 6
same,survivor count,[4],0 of 6
Cc1cc(OC(=O)Nc2cc(Cl)ccc2C)c(C(C)C)cc1Cl,survivor count,[5],3 of 3
[O-][n+]1ccccc1Br,survivor count,"dose: 100.0 mg/kg/injection, schedule: Q01DX009 (ip), vehicle: water",5 of 6
same,survivor count,"dose: 200.0 mg/kg/injection, schedule: Q01DX009 (ip), vehicle: water",3 of 6
same,survivor count,"dose: 400.0 mg/kg/injection, schedule: Q01DX009 (ip), vehicle: water",0 of 6
same,survivor count,"dose: 400.0 mg/kg/injection, schedule: Q04DX003 (ip), vehicle: water",0 of 6
O=C(CCl)NC(O)C(Cl)(Cl)Cl (centres undefined),survivor count,"dose: 75.0 mg/kg/injection, schedule: Q01DX009 (ip), vehicle: saline",1 of 6
same,survivor count,"dose: 150.0 mg/kg/injection, schedule: Q01DX009 (ip), vehicle: saline",0 of 6
same,survivor count,"dose: 300.0 mg/kg/injection, schedule: Q01DX009 (ip), vehicle: saline",0 of 6
CC(=O)CC(=O)NCCCN1CCCCC1,survivor count,"dose: 50.0 mg/kg/injection, schedule: Q01DX009 (ip), vehicle: saline with Tween-80",3 of 6
same,survivor count,"dose: 100.0 mg/kg/injection, schedule: Q04DX003 (ip), vehicle: saline with Tween-80",0 of 6
same,survivor count,[6],0 of 6
COc1ccc2c(c1)C13CCCCC1C(C2)N(CC1(c2ccccc2)CC1)CC3 (centres undefined),survivor count,[7],0 of 6
COc1cccc(Cc2c[nH]c(=S)[nH]c2=O)c1,survivor count,[7],1 of 6
CCC[CH2][Sn]([Br])([CH2]CCC)[CH2]CCC,survivor count,"dose: 25.0 mg/kg/injection, schedule: Q01DX009 (ip), vehicle: carboxymethylcellulose (CMC)",0 of 6
same,survivor count,"dose: 25.0 mg/kg/injection, schedule: Q04DX003 (ip), vehicle: carboxymethylcellulose (CMC)",1 of 6
same,survivor count,"dose: 50.0 mg/kg/injection, schedule: Q04DX002 (ip), vehicle: carboxymethylcellulose (CMC)",0 of 6 and 1 of 3
CCOc1ccc2c(ccc(/C=C\c3cc(C)c4cccnc4c3O)[n+]2C)c1,survivor count,"dose: 100.0 mg/kg/injection, schedule: Q01DX001 (ip), vehicle: carboxymethylcellulose (CMC)",5 of 6
same,survivor count,"dose: 200.0 mg/kg/injection, schedule: Q01DX001 (ip), vehicle: carboxymethylcellulose (CMC)",2 of 6
same,survivor count,"dose: 400.0 mg/kg/injection, schedule: Q01DX001 (ip), vehicle: carboxymethylcellulose (CMC)",1 of 6
COc1ccc(CCl)cc1C(=O)O,survivor count,"dose: 300.0 mg/kg/injection, schedule: Q01DX001 (ip), vehicle: saline",4 of 6
CN(C)c1ccc(C2=CC3CCCC(C2)N3C)cc1 (centres undefined),survivor count,"dose: 50.0 mg/kg/injection, schedule: Q04DX003 (ip), vehicle: saline",0 of 6
same,survivor count,[1],0 of 6
same,survivor count,[2],0 of 6
same,survivor count,[3],0 of 6
CCCCNC(C)(C)C1(c2ccc(Cl)cc2)SSC(c2ccc(Cl)cc2)(C(C)(C)NCCCC)SS1 (centres undefined),survivor count,[7],4 of 6
